According to paper PMC11922746, “SPO11 dimers are sufficient to catalyse DNA double-strand breaks in vitro” (Nature, 2024):
Substitutions are numbered along the chain they refer to. The exact form of at least one protein or probe is not confirmed. For part of these data: Negatives hold for the conditions tested. Where a protein sequence is shown, tags need not be part of it. For part of these data: The comparison behind a weaker result is the experiment's own reference, which may not be listed here.

Key:
MBP-SPO11 (Mus musculus) [1] = molecular target: T1, MBP-SPO11 (Mus musculus) (UniProt Q9WTK8); assay: covalent complex, SDS-PAGE; conditions: covalent 5' adduct after cleavage; recombinant protein; protein details: MBP; label: 3' 6-FAM on top strand
T1 sequence (looked up, limits assumed): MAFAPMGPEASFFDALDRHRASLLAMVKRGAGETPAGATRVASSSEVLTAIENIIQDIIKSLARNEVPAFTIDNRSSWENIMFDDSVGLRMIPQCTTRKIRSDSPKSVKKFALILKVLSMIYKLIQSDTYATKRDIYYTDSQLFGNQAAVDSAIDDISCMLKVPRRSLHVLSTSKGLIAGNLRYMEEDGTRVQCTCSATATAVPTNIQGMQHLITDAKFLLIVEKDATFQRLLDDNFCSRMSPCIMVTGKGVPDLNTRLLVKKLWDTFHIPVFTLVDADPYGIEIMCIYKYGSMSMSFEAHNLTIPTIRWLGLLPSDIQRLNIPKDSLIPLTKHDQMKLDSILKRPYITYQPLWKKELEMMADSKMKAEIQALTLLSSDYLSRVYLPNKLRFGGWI

[2] = molecular target: T2, MBP-SPO11 Y137F/Y138F (YFYF) (Mus musculus) (UniProt Q9WTK8); assay: covalent complex, SDS-PAGE; conditions: no covalent adduct, non-covalent binding not tested here; recombinant protein; protein details: MBP; label: 3' 6-FAM on top strand
T2 sequence (looked up, limits assumed): T1 sequence (looked up, limits assumed) with Y137F, Y138F

MBP-SPO11 (Mus musculus) [3] = molecular target: T1, MBP-SPO11 (Mus musculus); assay: EMSA; conditions: 5 mM EDTA, 0.1 nM DNA, SPO11 alone does not bind efficiently, EMSA: 25 mM Tris-HCl pH 7.5, 7.5% glycerol, 50 mM NaCl, 2 mM DTT, 1 mg/ml BSA, 37 C, 30 min, 0.1 nM labelled hairpin or 100 ng plasmid in 20 µl, recombinant protein, protein details: MBP, label: 5' 32P, folded or branched DNA

Row | Sequence | binding result (MBP-SPO11 (Mus musculus) [1]) | binding result [2] | binding result (MBP-SPO11 (Mus musculus) [3])
1 | CTAGTATAGAGCCGGCGCGCCATGTCTAGATAGCGTTAGGTCTGCCGAATAGTACTACTCGGATCCCGAGCGAACCACGC (double strand) [80-bp duplex, 3' 6-FAM (cb1593/cb100)] | binds | no binding | –
2 | TAGCAATGTAATCGTCTATGACGTTAACGTCATAGACGATTACATTGC [cb957 hairpin, 25 bp, 2-nt 5' overhang] | – | – | binds more weakly
